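Methionyl-tRNA synthetase (putative), Leishmania donovani (UniProt E9BF75). Primary screen of methionyl-tRNA synthetase; the read-out is not stated. The test concentration is not given. Values are per cent inhibition. About 68,000 compounds were tested under these conditions; 0.035% (about 24) showed 50% or more at least once.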

Protein sequences, listed by entry. Tags and fused reporters are not part of them.
UniProt E9BF75, entry or part of it: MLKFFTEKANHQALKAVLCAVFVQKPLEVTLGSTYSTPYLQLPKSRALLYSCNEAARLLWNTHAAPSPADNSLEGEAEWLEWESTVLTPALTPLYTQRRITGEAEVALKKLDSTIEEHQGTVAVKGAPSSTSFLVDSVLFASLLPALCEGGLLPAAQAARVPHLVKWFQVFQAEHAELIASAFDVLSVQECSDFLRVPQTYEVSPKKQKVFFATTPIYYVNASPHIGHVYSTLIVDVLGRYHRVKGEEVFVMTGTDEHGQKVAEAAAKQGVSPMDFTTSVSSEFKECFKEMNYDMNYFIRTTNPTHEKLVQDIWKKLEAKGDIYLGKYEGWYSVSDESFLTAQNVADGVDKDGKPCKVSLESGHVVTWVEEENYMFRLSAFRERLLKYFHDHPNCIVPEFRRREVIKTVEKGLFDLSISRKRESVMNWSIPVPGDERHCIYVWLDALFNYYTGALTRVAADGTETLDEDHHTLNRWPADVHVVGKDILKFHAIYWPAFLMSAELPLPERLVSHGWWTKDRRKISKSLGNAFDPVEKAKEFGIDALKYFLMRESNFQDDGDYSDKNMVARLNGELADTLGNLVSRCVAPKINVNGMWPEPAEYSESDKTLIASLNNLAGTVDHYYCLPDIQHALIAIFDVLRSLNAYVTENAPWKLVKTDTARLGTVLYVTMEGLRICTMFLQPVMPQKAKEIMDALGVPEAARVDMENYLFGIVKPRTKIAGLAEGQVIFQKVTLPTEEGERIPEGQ

All values are in %. The record does not define 0% and 100%; most values in the screen are far below 50% and negative numbers occur (in some assays of this library far below -100). This is an unselected part of the compounds tested.

SMILES	Inhibition
CCOCCCNC(=O)c1nn(CC)cc1Cl	3.734
CS(=O)(=O)N1CCC(NC(=O)COc2ccc3ccccc3c2)CC1	18.03
CC(C)N1CCC(c2n[nH]cc2S(C)(=O)=O)CC1	11.55
CCCC(O)CNc1cncc(Br)c1 (stereo not shown)	3.693
CCN(Cc1cnc(-c2ccccn2)nc1)C1CCS(=O)(=O)C1 (stereo not shown)	5.072
O=C(NC1CCN(Cn2nc(-c3ccccc3)oc2=O)CC1)C1CC1	6.832
CN(Cc1ccco1)C(=O)CN1CCCC1Cn1cccn1 (stereo not shown)	5.155
O=C(CC1CCc2ccccc21)NCCSc1cnn[nH]1 (stereo not shown)	2.957
c1cnc(N2CCCC3(CCN(Cc4cccs4)C3)C2)nc1 (stereo not shown)	15.06
O=C(Nc1ccccc1)[C@H]1C[C@@H]2CN(C(=O)Nc3ccccc3)C[C@H]1O2	14.12
O=C(NC1CC1)[C@@H]1C[C@@H]2CCN(Cc3ccccc3)C[C@H]2O1	21.43
CCc1nc(C2CCCN2Cc2nccn2Cc2ccccc2)no1 (stereo not shown)	7.639
COc1ccc(Cl)cc1NC(=O)CNc1ccn(CC(N)=O)n1	6.425
CC(C)NC(=O)CNC(=O)N1CCc2c([nH]c3ccc(Cl)cc23)C1	4.545
COC(=O)C1CCCN1CC(=O)NCc1ccc(OCC(N)=O)cc1 (stereo not shown)	10.44
CN(Cc1cnn(C)c1)C(=O)CN1CCCCC1Cn1cncn1 (stereo not shown)	20.5
OCc1ccncc1NCc1cnc(-c2ccccn2)s1	11.18
COc1ccc(CNc2nc(C3CC3)no2)cc1OC	-0.2597
CCC1=N[C@@]2(CC[C@@H]3CN(CC4CC4)C[C@@H]32)C(=O)N1	-3.136
O=C(c1ccsc1)N1CCO[C@@H]2CN(Cc3cccs3)C[C@@H]2C1	10.96
CCn1nnnc1-c1cccc(NC(=O)CCc2cnn(C)c2)c1	11.98
CNc1cnc(CC2COCCN(Cc3cccc(C)n3)C2)cn1 (stereo not shown)	17.46
CCC1=N[C@@]2(CC[C@@H]3CN(C(=O)NCC(C)C)C[C@@H]32)C(=O)N1CCOC	9.446
CCCN1CCCn2nc(CNS(=O)(=O)c3ccc(C)cc3)cc2C1	8.148
Cn1ncc(NCc2cccc(COC(C)(C)C)c2)c(Cl)c1=O	18.18
COCC(=O)N1CCC2(CC1)CC(CC(=O)NC1CC1)c1ccccc12 (stereo not shown)	11.59
COCCn1cc(NC(=O)NC(C)CCc2ccccc2)ccc1=O (stereo not shown)	11.15
CCC1=N[C@@]2(CC[C@@H]3CN(C(=O)Nc4ccccc4)C[C@@H]32)C(=O)N1CC	13.17
COc1ccc(Nc2nc3c(C)nn(C)c3c(=O)n2C)c(C)c1	-17.12
CNCc1n[nH]c(=O)n1-c1cccc(Cl)c1Cl	7.161
NS(=O)(=O)c1cc(C(=O)N2CCCC(n3ccnc3)C2)cs1 (stereo not shown)	20.22
Cc1ccc(C)c(OC2CCN(C(=O)c3ccc(O)nc3)CC2)c1	20.41
O=C(c1ccoc1)N1C[C@@H]2[C@@H](C1)OCC(=O)N2Cc1cccnc1	9.929
CN(Cc1noc(C2CC2)n1)C1CCN(Cc2nc(C3CC3)no2)C1 (stereo not shown)	-15.14
CNc1cc(C2CN(CC(=O)N(C)C)CCO2)nc(C)n1 (stereo not shown)	22.58
O=C(O)C(c1ccc2c(c1)OCCO2)N1CCCC1 (stereo not shown)	5.587
CN(C)CCN(C)C[C@H]1CN2CC[C@H]1C[C@@H]2CNC(=O)Nc1ccsc1	2.198
Cc1ccc(N(Cc2ccco2)C(=O)CC2=NN(C)C(=O)C2)cc1	19.02
CCn1ncc2c(C(F)(F)F)cc(-c3ccn(C)n3)nc21	-2.764
Cc1nnc(N2CC[C@@H](OCC3CC3)[C@@H](Cc3ccccc3)C2)s1	20.52
Cc1cccc2sc(NC(=O)CN3CCCC4(CC3)CNC(=O)O4)nc12 (stereo not shown)	13.77
CCC(C)N(Cc1ccsc1)C(=O)c1ccc(CO)cc1 (stereo not shown)	19.77
CCn1c(CN(C)C)nnc1C1CCN(Cc2cccc(C#N)c2)CC1	10.7
COCC1CN(Cc2c(C)noc2C)Cc2cn(C)nc21 (stereo not shown)	6.84
CCN(Cc1cnn(C)c1)C(=O)c1ccc(C)c(N2CCNC2=O)c1	18.05
CCn1ncc2c1C(COCC1CC1)CN(C(=O)c1ccncn1)C2 (stereo not shown)	8.667
Cc1nc2c(c(NCc3ccccc3)n1)CCN(C(=O)NC(C)C)CC2	1.961
COc1ccc(CCCC(=O)N2CCCC(n3cccn3)C2)cc1 (stereo not shown)	-0.3436
CCOc1nn(CC)cc1-c1nnc(SCC)n1C	10.79

4 of the entries, repeated:

SMILES	Inhibition
CCN(Cc1cnc(-c2ccccn2)nc1)C1CCS(=O)(=O)C1 (stereo not shown)	5.072
O=C(O)C(c1ccc2c(c1)OCCO2)N1CCCC1 (stereo not shown)	5.587
CCOCCCNC(=O)c1nn(CC)cc1Cl	3.734
COc1ccc(CCCC(=O)N2CCCC(n3cccn3)C2)cc1 (stereo not shown)	-0.3436

From ChEMBL document CHEMBL3988442, “University of Dundee, Small-Polar-MMV Screening Library” (2021).